Results as given in paper PMC5327418.

Sequences of proteins named here, by UniProt entry; tags and fusion partners are left off.
UniProt P32569: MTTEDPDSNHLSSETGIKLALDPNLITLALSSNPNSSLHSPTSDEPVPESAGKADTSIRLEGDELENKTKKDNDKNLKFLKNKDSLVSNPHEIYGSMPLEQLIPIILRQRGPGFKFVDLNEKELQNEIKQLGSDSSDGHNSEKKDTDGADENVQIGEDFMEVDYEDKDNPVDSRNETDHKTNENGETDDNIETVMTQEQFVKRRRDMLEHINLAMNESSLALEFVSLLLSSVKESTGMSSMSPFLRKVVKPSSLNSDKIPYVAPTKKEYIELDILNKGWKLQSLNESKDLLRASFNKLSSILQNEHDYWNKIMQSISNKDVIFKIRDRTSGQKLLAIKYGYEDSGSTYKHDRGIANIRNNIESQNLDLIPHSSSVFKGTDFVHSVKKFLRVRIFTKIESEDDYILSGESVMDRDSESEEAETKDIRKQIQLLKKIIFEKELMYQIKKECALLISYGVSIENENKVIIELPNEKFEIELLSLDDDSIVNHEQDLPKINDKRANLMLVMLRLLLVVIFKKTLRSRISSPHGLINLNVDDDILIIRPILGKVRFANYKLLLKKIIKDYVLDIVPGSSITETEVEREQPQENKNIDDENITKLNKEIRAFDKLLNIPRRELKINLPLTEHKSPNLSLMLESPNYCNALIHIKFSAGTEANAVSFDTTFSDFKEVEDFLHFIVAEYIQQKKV

Target: Med17-HA (S. cerevisiae (endogenous in S288c)) (UniProt P32569)
Test: affinity purification with mass spectrometry; CoIP of Med17-HA on anti-HA magnetic beads from cryoground yeast lysate, 2 h at 4 °C; 20 mM HEPES pH 7.5, 300 mM KOAc, 10% glycerol, 0.01% NP-40, 6 mM MnSO4, 1 mM DTT, Cyanase nuclease; parallel control CoIP from 15N-labelled wild type cells, mixing after purification (MAP); GeLC-MS/MS, three biological replicates

binding: binds
B1: Swi6 (protein, UniProt P09959 1-803)
chain: MALEEVVRYLGPHNEIPLTLTRDSETGHFLLKHFLPILQQYHDTGNINETNPDSFPTDEERNKLLAHYGIAVNTDDRGELWIELEKCLQLLNMLNLFGLFQDAFEFEEPETDQDEEDPSHSKLPENKTKSENSKDNISSKRINNLQDMSLDSDAHRELGSPLKKLKIDTSVIDAESDSTPNTARGKPNDDINKGPSGDNENNGTDDNDRTAGPIITFTHDLTSDFLSSPLKIMKALPSPVVNDNEQKMKLEAFLQRLLFPEIQEMPTSLNNDSSNRNSEGGSSNQQQQHVSFDSLLQEVNDAFPNTQLNLNIPVDEHGNTPLHWLTSIANLELVKHLVKHGSNRLYGDNMGESCLVKAVKSVNNYDSGTFEALLDYLYPCLILEDSMNRTILHHIIITSGMTGCSAAAKYYLDILMGWIVKKQNRPIQSGTNEKESKPNDKNGERKDSILENLDLKWIIANMLNAQDSNGDTCLNIAARLGNISIVDALLDYGADPFIANKSGLRPVDFGAGTSKLQNTNGGDENSKMVSKGDYDGQKNGKAKKIRSQLLKNPPETTSLINDVQNLLNSISKDYENETVQYNEKLEKLHKELNEQREELANSREQLANVKQLKDEYSLMQEQLTNLKAGIEEEEESFREESKKLGIIADESSGIDWDSSEYDADEPFKVEFLSDFLEDKLQKNYEGDISKLLEAESKEQIMEQIRNQLPAEKIQSMLPPTVLLKARINAYKRNDKHLTNVLDTISTKQSELENKFRRVLSLCLKIDENKVDNMLDGLLQAISSEDPQDIDTDEMQDFLKKHAS

binding: binds
B2: Taf5 (protein, UniProt P38129 1-798)
chain: MSQKQSTNQNQNGTHQPQPVKNQRTNNAAGANSGQQPQQQSQGQSQQQGRSNGPFSASDLNRIVLEYLNKKGYHRTEAMLRAESGRTLTPQNKQSPANTKTGKFPEQSSIPPNPGKTAKPISNPTNLSSKRDAEGGIVSSGRLEGLNAPENYIRAYSMLKNWVDSSLEIYKPELSYIMYPIFIYLFLNLVAKNPVYARRFFDRFSPDFKDFHGSEINRLFSVNSIDHIKENEVASAFQSHKYRITMSKTTLNLLLYFLNENESIGGSLIISVINQHLDPNIVESVTAREKLADGIKVLSDSENGNGKQNLEMNSVPVKLGPFPKDEEFVKEIETELKIKDDQEKQLNQQTAGDNYSGANNRTLLQEYKAMNNEKFKDNTGDDDKDKIKDKIAKDEEKKESELKVDGEKKDSNLSSPARDILPLPPKTALDLKLEIQKVKESRDAIKLDNLQLALPSVCMYTFQNTNKDMSCLDFSDDCRIAAAGFQDSYIKIWSLDGSSLNNPNIALNNNDKDEDPTCKTLVGHSGTVYSTSFSPDNKYLLSGSEDKTVRLWSMDTHTALVSYKGHNHPVWDVSFSPLGHYFATASHDQTARLWSCDHIYPLRIFAGHLNDVDCVSFHPNGCYVFTGSSDKTCRMWDVSTGDSVRLFLGHTAPVISIAVCPDGRWLSTGSEDGIINVWDIGTGKRLKQMRGHGKNAIYSLSYSKEGNVLISGGADHTVRVWDLKKATTEPSAEPDEPFIGYLGDVTASINQDIKEYGRRRTVIPTSDLVASFYTKKTPVFKVKFSRSNLALAGGAFRP

binding: binds
B3: Taf3 (protein, UniProt Q12297 1-353)
chain: MTTNNDFYFALLRISILQLLKAQGFDRARPSLVDVMTDLYAKFLSLLASEVSSIAQARCDQDDTIALQDITLALENLGIVKPTNVLDVYDENSELSSSRGMEKFKDWCIYSTQLTDARITALPTVELLQSEEKESDPLSAIPDYLNQLLQNKGAKQKLETKNRKTELIEDLINNNGLDDWIKLVIARQRINMIERASKKESQNVPALPHIAGYKSSILSRHHHTTITNEDRMPSAMTPRDEDALTEIQENPFVTSKLPIMRKENRLENITLSFEDEELESLGEVEGPNQKSQENNNEESFKENNKSLTESPHGDDRDISMFQFDSNVDTKWAEQEDMDSTFQRRTSLDYGGYF

binding: binds
B4: Taf4 (protein, UniProt P50105 1-388)
chain: MANSPKKPSDGTGVSASDTPKYQHTVPETKPAFNLSPGKASELSHSLPSPSQIKSTAHVSSTHNDAAGNTDDSVLPKNVSPTTNLRVESNGDTNNMFSSPAGLALPKKDDKKKNKGTSKADSKDGKASNSSGQNAQQQSDPNKMQDVLFSAGIDVREEEALLNSSINASKSQVQTNNVKIPNHLPFLHPEQVSNYMRKVGKEQNFNLTPTKNPEILDMMSSACENYMRDILTNAIVISRHRRKAVKINSGRRSEVSAALRAIALIQKKEEERRVKKRIALGLEKEDYENKIDSEETLHRASNVTAGLRAGSKKQYGWLTSSVNKPTSLGAKSSGKVASDITARGESGLKFREAREEPGIVMRDLLFALENRRNSVQTIISKGYAKIRD

binding: binds
B5: Mbp1 (protein, UniProt P39678 1-833)
chain: MSNQIYSARYSGVDVYEFIHSTGSIMKRKKDDWVNATHILKAANFAKAKRTRILEKEVLKETHEKVQGGFGKYQGTWVPLNIAKQLAEKFSVYDQLKPLFDFTQTDGSASPPPAPKHHHASKVDRKKAIRSASTSAIMETKRNNKKAEENQFQSSKILGNPTAAPRKRGRPVGSTRGSRRKLGVNLQRSQSDMGFPRPAIPNSSISTTQLPSIRSTMGPQSPTLGILEEERHDSRQQQPQQNNSAQFKEIDLEDGLSSDVEPSQQLQQVFNQNTGFVPQQQSSLIQTQQTESMATSVSSSPSLPTSPGDFADSNPFEERFPGGGTSPIISMIPRYPVTSRPQTSDINDKVNKYLSKLVDYFISNEMKSNKSLPQVLLHPPPHSAPYIDAPIDPELHTAFHWACSMGNLPIAEALYEAGTSIRSTNSQGQTPLMRSSLFHNSYTRRTFPRIFQLLHETVFDIDSQSQTVIHHIVKRKSTTPSAVYYLDVVLSKIKDFSPQYRIELLLNTQDKNGDTALHIASKNGDVVFFNTLVKMGALTTISNKEGLTANEIMNQQYEQMMIQNGTNQHVNSSNTDLNIHVNTNNIETKNDVNSMVIMSPVSPSDYITYPSQIATNISRNIPNVVNSMKQMASIYNDLHEQHDNEIKSLQKTLKSISKTKIQVSLKTLEVLKESSKDENGEAQTNDDFEILSRLQEQNTKKLRKRLIRYKRLIKQKLEYRQTVLLNKLIEDETQATTNNTVEKDNNTLERLELAQELTMLQLQRKNKLSSLVKKFEDNAKIHKYRRIIREGTEMNIEEVDSSLDVILQTLIANNNKNKGAEQIITISNANSHA

binding: binds
B6: Taf1 (protein, UniProt P46677 1-1066)
chain: MVKQQGSGKTNLANEDEAYEAIFGGEFGSLEIGSYIGGDEGANSKDYTEHLPDAVDFEDEDELADDDDDLPEESDANLHPAMMTMGAYDDVNENGAVLGIDSNSLNMQLPEINGDLSQQFILEDDGGTPATSNALFMGMDANEIHLATETGVLDGSGANEIGHSQLSIGGVNGNDMSINGGFIMEPDMSDGKHKKATKLDLINHEKYLLKKYFPDFEKGKILKWNKLIYRRSVPYHWHSEISRVKKPFMPLNLKFKVQQDDKRLFNSRTISYVAPIYQGKNNLLQSNSSASRRGLIHVSIDELFPIKEQQKKRKIIHDEKTISEDLLIATDDWDQEKIINQGTSSTATLADSSMTPNLKFSGGYKLKSLIEDVAEDWQWDEDMIIDAKLKESKHAELNMNDEKLLLMIEKTNNLAQQKQQLDSSNLILPLNETILQQKFNLSNDDKYQILKKTHQTKVRSTISNLNIQHSQPAINLQSPFYKVAVPRYQLRHFHRENFGSHIRPGTKIVFSKLKARKRKRDKGKDVKESFSTSQDLTIGDTAPVYLMEYSEQTPVALSKFGMANKLINYYRKANEQDTLRPKLPVGETHVLGVQDKSPFWNFGFVEPGHIVPTLYNNMIRAPVFKHDISGTDFLLTKSSGFGISNRFYLRNINHLFTVGQTFPVEEIPGPNSRKVTSMKATRLKMIIYRILNHNHSKAISIDPIAKHFPDQDYGQNRQKVKEFMKYQRDGPEKGLWRLKDDEKLLDNEAVKSLITPEQISQVESMSQGLQFQEDNEAYNFDSKLKSLEENLLPWNITKNFINSTQMRAMIQIHGVGDPTGCGEGFSFLKTSMKGGFVKSGSPSSNNNSSNKKGTNTHSYNVAQQQKAYDEEIAKTWYTHTKSLSISNPFEEMTNPDEINQTNKHVKTDRDDKKILKIVRKKRDENGIIQRQTIFIRDPRVIQGYIKIKEQDKEDVNKLLEEDTSKINNLEELEKQKKLLQLELANLEKSQQRRAARQNSKRNGGATRTENSVDNGSDLAGVTDGKAARNKGKNTTRRCATCGQIGHIRTNKSCPMYSSKDNPASPK

binding: binds
B7: Taf2 (protein, UniProt P23255 1-1407)
chain: MMSFSKNATPRAIVSESSTLHEMKFRNFRVAHEKISLDIDLATHCITGSATIIIIPLIQNLEYVTFDCKEMTIKDVLVENRRCDQFIHDDPLQTNLNGLTSQNVLYSDNSIEQSHFLRSKFASLNEYPETDSKSQLTIKIPSSIKISLEDANALSNYTPITPSIKTTPGFQESVFTPITLQIEYEIRNPKSGIKFDTVYADKPWLWNVYTSNGEICSSASYWVPCVDLLDEKSTWELEFSVPRLVKNIGTSKLIGQNGEESEKEKEDTPEHDEEEEGKPARVIKDEDKDSNLKNDEEGKNSKSKDAQDNDEEEEEGESDEEEEEGEEERRNIEESNNPSLRDVIVCCSEYSNIKELPHPIDLTKKKCIFQIINPVAPHHIGWAIGAFNSWSLPLISPPSVDAEDEVEEDKLRENVVDNVNDTMDDDIGSDIIPIQIFTLPTQETDELTVINSTVVCQKIIDFYSKEFGSYPFTCYSMVFLPTAPSKHMDFAALGICNTRLLYPLEVIDKAFSTTNELAWALANQWSCVNITPLDMNDYWCCLGIAGYMVFQVTKKLMGNNTYKYQLKRNSEAIVEQDFEKPPIGSTFTGSSRPISWSSKDLSFIQLKAPMILHILDRRMTKTERSFGMSRVLPKIFLQAMSGDLPNNSLTSSHFQHVCERVNKSKLENFFNEWVYGSGVPILRVTQRFNRKRMVIELGIRQVQDEELGHEKVVGEEGFFKSALDHLEHPDLNRTECFTGSMTIRIHEHDGTPYEHIVEIKDTFTKIDIQYNTKYRRLRKRGGGANDENGVENNNEEKPIVVDVNCLGNVYMSPEECSRFSLTEFNRTSESNELLKQNEAFEWIRIDSDLEWICQMHINQPDYMFSSQLRQDGDIEAQLEAIRYYEDVVVNGGVKSLVYSSILFRTAIDERYFFGIRLAACEALSKYVYDPDFTGGVKHLIQIFQILFCLEDSNIPKSNNFENPKLYFLQCNIPKYLAKVKNENGKCPKLVKQFLLDILVYNENGENKYSDDAYVRSLIENVVKVALNEYKDKAYMEKVKTQLLRYENLVNWLSSYESLIKTTIMYAKYKLHKVGAYDFTELTGMIMHTLTLGINNGDISRESFQNEFLMVLKIMLLEGGLKNKDALVLFTEILCFHEDSYIRDKSVDVLSECVNLVVMDGSLDTISDDIKSSVQSVHNEVKNIKSEDDIELFLSGHYVDDMKIKIEKIGRQNISGLIQICRDMFKGYSPLKILLWDVLNLPVLSLYQRKQIHDLVRVMYTLINSFVVRLETPRERRLVAKMNSNEEGKLDIVIKRESILKVHIKKEVTSTVEAPKKANKIKISLKGDKPVRKVEKQIVKPKVTSKQRKVKSHVNRMGSLPLRFVKIQQQPRVMVHLSSVPYSQFVQITKVTSRSFMVKIRTKNDAKN

No constants are given. Whether binding was seen depends on the method and setting. In cells and extracts the contact can be indirect. These calls come from enrichment with a bait or labelling near it, and not all partners need be listed. Where a sequence is shown, tags or fusion partners need not be part of it. Each block holds one binder with its values, some of them ahead of it.
